Test results reported in PubChem BioAssay AID1671190 (National Center for Advancing Translational Sciences (NCATS), 2021).
“And” between values parts separate entries of the source, which are not always exact repeats. Identical values can stand only once. The campaign covered roughly 580,000 compounds. About 6,100 (1.1%) were called active. The inconclusive results got no clear call from the source; some entries with a clear call stand among them for comparison. The call rests on the fitted dose curve; in most records, active means well fitted inhibition curve with a large enough effect; inconclusive means small, poorly fitted or top-dose-only effect, or another doubt; inactive means no such curve, though single readings can be large or run the other way. Potencies beside an inconclusive call are fits to weak or partial responses and may not hold up. Bridge positions count the residues as written; N and C are the ends. Square brackets hold non-standard residues; d marks the D form. Peptide text beside a SMILES is read from it. * marks the point of attachment. ξ: configuration not given here. Octanoyl(6-Me) = CCC(C)CCCCC(=O)*; ξThr(3R) = C[C@@H](O)C(N)C(=O)O; dDab = NCC[C@@H](N)C(=O)O; Dab = NCC[C@H](N)C(=O)O
Potency means the concentration at half of the fitted maximal effect.

The chains behind the UniProt entries cited, without tags or fusion partners. Where a name states a change or a piece, a line headed by the entry shows the natural chain unless it says otherwise.
UniProt P18054: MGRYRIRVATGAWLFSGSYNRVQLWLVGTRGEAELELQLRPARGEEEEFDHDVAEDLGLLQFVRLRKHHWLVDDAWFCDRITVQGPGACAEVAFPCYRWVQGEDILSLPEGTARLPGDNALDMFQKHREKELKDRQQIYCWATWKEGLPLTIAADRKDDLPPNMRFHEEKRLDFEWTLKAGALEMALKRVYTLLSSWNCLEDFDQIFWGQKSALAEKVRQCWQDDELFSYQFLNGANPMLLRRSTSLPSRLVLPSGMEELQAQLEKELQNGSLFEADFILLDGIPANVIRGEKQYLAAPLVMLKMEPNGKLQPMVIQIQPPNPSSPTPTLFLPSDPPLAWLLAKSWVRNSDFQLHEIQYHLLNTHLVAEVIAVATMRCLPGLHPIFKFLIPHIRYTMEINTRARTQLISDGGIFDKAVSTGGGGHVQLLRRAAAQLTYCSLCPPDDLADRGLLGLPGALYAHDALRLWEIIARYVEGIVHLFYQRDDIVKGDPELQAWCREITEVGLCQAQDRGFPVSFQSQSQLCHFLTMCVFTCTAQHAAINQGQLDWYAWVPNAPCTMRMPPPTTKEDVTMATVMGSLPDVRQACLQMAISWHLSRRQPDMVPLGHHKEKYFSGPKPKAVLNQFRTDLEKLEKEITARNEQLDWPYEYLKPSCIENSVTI

These compounds were tested against Polyunsaturated fatty acid lipoxygenase ALOX12 (Homo sapiens) (UniProt P18054) (assay: Primary qHTS assay for inhibitors of human arachidonate 12S-lipoxygenase (ALOX12): Round 2). Details: purified 12hLO, xylenol orange hydroperoxide absorbance; series mostly up to 108 µM.
How it was run: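 Purified human 12hLO (150 nM final) in 25 mM Hepes, 0.01% Triton X-100, pH 7.0 was preincubated 15 min at room temperature with compound. Then 40 uM arachidonic acid was added, 30 min. Hydroperoxide was read by Fe-XO absorbance ratio 573/405 nm.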
For `O=[N+]([O-])c1ccc(-c2csc(NN=C3CCCC3)n2)cc1`, the Potency was “inactive”. With `Cc1cc(C)cc(NC(=O)Nc2ccc(N3CCCCC3)cc2)c1` the Potency was inconclusive: 100 µM [inhibitor, partial curve, poor fit]. For `N=C(N)c1ccc(N)cc1`, the Potency was inconclusive: 5.62 µM [inhibitor, full curve, poor fit] and inconclusive: 10 µM [inhibitor, full curve, poor fit]. With `O=C(Nc1c(C(=O)c2ccc3c(c2)OCCO3)oc2ccccc12)c1ccc(F)cc1` the Potency was inconclusive: 112 µM [inhibitor, single point]. In the case of `O=C(CCc1c[nH]c2ccccc12)Nc1nnc(C2CC2)s1`, the Potency is reported as “inactive”. In the case of `NC(=S)NN=C1CCSCC1`, the Potency is reported as “inactive”. `CCC(CC)C1C(C#N)=C(N)Oc2n[nH]c(C)c21` (stereo not given) was tested, and the Potency was “inactive”. With `Cc1ccc(NC(=O)CN(C)C(=O)c2cn(Cc3ccccc3)nc2-c2cccnc2)cc1` the Potency was “inactive”. With `FCc1nc2nc(Cl)c(Cl)nc2[nH]1` the Potency was inconclusive: 5.62 µM [inhibitor, full curve, poor fit]. `COc1cc(/C=C2/C(=O)NN(c3ccc(Cl)cc3)C2=O)cc(Br)c1O` was tested, and the Potency was “inactive”. With `c1ccc(Nc2nnc(-c3ccc4c(c3)OCO4)o2)cc1` the Potency was inconclusive: 44.7 µM [inhibitor, partial curve, poor fit]. For `COc1cc(CNCc2ccc3c(c2)OCO3)c([N+](=O)[O-])cc1OC`, the Potency was inconclusive: 10 µM [inhibitor, full curve]. With `COc1cc2c(cc1OC)CN(c1ccc(C(N)=O)cc1[N+](=O)[O-])CC2` the Potency was inconclusive: 56.2 µM [inhibitor, partial curve, poor fit]. With `O=S(=O)(c1ccc(F)cc1)N1CCC(Oc2cccc(C(F)(F)F)c2)CC1` the Potency was inconclusive: 50.1 µM [inhibitor, partial curve, poor fit]. With `O=C(CNc1cc(S(=O)(=O)N2CCCC2)ccc1OCC(F)(F)F)Nc1cccc(C(F)(F)F)c1` the Potency was “inactive”. With `CCN(CC)C(=O)Cn1cc(C(=O)C(=O)NCC2COc3ccccc3O2)c2ccccc21` (stereo not given) the Potency was “inactive”. For `COc1ccccc1S(=O)(=O)Nc1ccc(-c2nnc3n2CCCCC3)cc1`, the Potency was inconclusive: 31.6 µM [inhibitor, partial curve, poor fit]. `CCn1c(COc2ccc(Cl)cc2Cl)nc2ccccc21` was tested, and the Potency was “inactive”. For `C[S+](=O)([O-])c1ccc(-c2nnc3n2C(C(=O)N2CCCC2)CC3)cc1` (stereo not given), the Potency was inconclusive: 25.1 µM [inhibitor, full curve, poor fit]. With `CC(=O)N1N=C(c2ccc(C)cc2)OC1c1ccc(Br)cc1` (stereo not given) the Potency was inconclusive: 44.7 µM [inhibitor, partial curve, poor fit]. For `CC(C)c1ccc(OCc2nn3c(=O)c4ccccc4nc3s2)cc1`, the Potency was inconclusive: 31.6 µM [inhibitor, partial curve, poor fit]. With `Cc1csc(C(C)NC(=O)c2ccc(OC3CCN(CCc4ccccc4)CC3)cc2)n1` (stereo not given) the Potency was “inactive”. For `O=C(c1ccc(-c2ccccc2Cl)o1)N1CCN(S(=O)(=O)c2cccs2)CC1`, the Potency was inconclusive: 70.8 µM [inhibitor, partial curve, poor fit]. `Cc1ccc(Nc2nnc(SCC(=O)NCC3CCCO3)s2)cc1` (stereo not given) was tested, and the Potency was “inactive”. In the case of `Cc1ccc(CN(C)C(=O)c2nn(Cc3ccccc3)c(=O)c3ccccc23)o1`, the Potency is reported as “inactive”. `O=C(NC[C@H]1OC[C@@H](NCc2cccnc2)[C@@H]1O)N1CCOCC1` was tested, and the Potency was inconclusive: 100 µM [inhibitor, partial curve, poor fit]. `CC(=O)Nc1ccc2c(CN3CCCCC3)cc(=O)oc2c1` was tested, and the Potency was inconclusive: 3.16 µM [inhibitor, full curve, poor fit]. With `COc1ccc(NC(=O)Cn2c(N3CCCCC3)nc(C)c(C)c2=O)cc1Cl` the Potency was inconclusive: 70.8 µM [inhibitor, partial curve]. For `COc1ccccc1C(=O)N1CCN(c2oc(-c3cccc(Cl)c3)nc2C#N)CC1`, the Potency was “inactive”. In the case of `O=C(Cc1cccs1)N1CCCC(CN2CCOCC2)CC1` (stereo not given), the Potency is reported as “inactive”. With `Cc1ccc2[nH]c(=O)c(C3C(C#N)=C(N)Oc4c3ccc3cccnc43)cc2c1` (stereo not given) the Potency was inconclusive: 31.6 µM [inhibitor, full curve, poor fit]. With `O=C(COc1ccc2ccccc2c1CN1CCOCC1)N1CCc2ccccc21` the Potency was inconclusive: 89.1 µM [inhibitor, partial curve, poor fit]. `CCCC(c1nnnn1C(C)(C)CC)N(Cc1ccco1)Cc1cc2ccc(OC)cc2[nH]c1=O` (stereo not given) was tested, and the Potency was inconclusive: 0.501 µM [inhibitor, full curve, poor fit]. With `CSc1ccc(/C=C2\Cc3ccccc3C2=O)cc1` the Potency was inconclusive: 50.1 µM [inhibitor, partial curve, poor fit]. In the case of `Cc1ccc(C(=O)Cn2nnc3ccccc32)cc1[N+](=O)[O-]`, the Potency is reported as inconclusive: 35.5 µM [inhibitor, partial curve, poor fit]. In the case of `N#Cc1ccc(C(S(=O)(=O)Cc2ccccc2)S(=O)(=O)Cc2ccccc2)cc1`, the Potency is reported as “inactive”. In the case of `Cc1ccc(-c2nc(S(=O)(=O)c3ccc(C)cc3)c(SCC(N)=O)o2)cc1`, the Potency is reported as inconclusive: 50.1 µM [inhibitor, partial curve, poor fit]. With `CCC(C)CCCCC(=O)N[C@@H](CCN)C(=O)NC(C(=O)N[C@H](CCN)C(=O)N[C@@H]1CCNC(=O)C([C@@H](C)O)NC(=O)[C@@H](CCN)NC(=O)[C@@H](CCN)NC(=O)[C@@H](CC(C)C)NC(=O)[C@H](Cc2ccccc2)NC(=O)[C@H](CCN)NC1=O)[C@@H](C)O` (stereo partly drawn) ({Octanoyl(6-Me)}-[Dab][ξThr(3R)][dDab][dDab][Dab]F[dL][dDab][dDab][ξThr(3R)]; lactam 4-C) the Potency was inconclusive: 21.7 µM [inhibitor, partial curve, poor fit]. For `COc1ccc(/C=N/NC(=S)Nc2cccc(C(=O)O)c2)cc1OC`, the Potency was inconclusive: 44.7 µM [inhibitor, partial curve, poor fit]. `COc1ccc(C2Cn3nnc(C(=O)N4CCN(C(=O)c5ccc(F)cc5)CC4)c3CO2)cc1` (stereo not given) was tested, and the Potency was “inactive”. In the case of `O=C1C2C3C=CC(O3)C2C(=O)N1N=Cc1cccc2ccccc12` (stereo not given), the Potency is reported as inconclusive: 44.7 µM [inhibitor, partial curve, poor fit]. In the case of `COc1ccccc1CNC(=O)COC(=O)Cn1cnc2ccccc21`, the Potency is reported as “inactive”. `CC(C)CC(=O)/C(=C/c1ccc(N(C)C)cc1)n1cncn1` was tested, and the Potency was “inactive”. `CCN(CC)CC(O)COc1ccc2c(c1)c(C(C)=O)c(C)n2CC` (stereo not given) was tested, and the Potency was “inactive”. For `O=[N+]([O-])c1cc(/C=N\Nc2ccccn2)ccc1Cl`, the Potency was inconclusive: 100 µM [inhibitor, single point]. For `CC(=O)c1cc2c(ccc3ccccc32)o1`, the Potency was active: 31.6 µM. With `Cc1cccc2sc(N(CCCN(C)C)C(=O)CCc3ccccc3)nc12` the Potency was inconclusive: 50.1 µM [inhibitor, partial curve, poor fit]. For `COc1ccc(CCN2C(=O)N(c3cccc(C)c3)C(=O)C2CC(=O)Nc2ccccc2)cc1OC` (stereo not given), the Potency was inconclusive: 100 µM [inhibitor, partial curve, poor fit]. For `COC(=O)C1=C(N)N(c2ccc(F)cc2)C2=C(C(=O)CCC2)C1c1ccc2c(c1)OCO2` (stereo not given), the Potency was inconclusive: 50.1 µM [inhibitor, single point]. For `CC(=O)Nc1ccc(NC(=O)CCc2ncc(-c3ccccc3Cl)o2)cc1`, the Potency was inconclusive: 56.2 µM [inhibitor, partial curve, poor fit]. With `CCOC(=O)c1ccc(Oc2coc3cc(OCc4ccc(C)cc4)ccc3c2=O)cc1` the Potency was “inactive”. `O=C1CC(=C(c2ccccc2)c2ccccc2)C(=O)N1CCN1CCN(c2cccc(Cl)c2)CC1` was tested, and the Potency was inconclusive: 44.7 µM [inhibitor, partial curve, poor fit]. In the case of `C#CC[N+]1(CC#Cc2ccccc2)CCOCC1`, the Potency is reported as inconclusive: 0.282 µM [inhibitor, full curve, poor fit]. With `CC(=O)C1=C(O)C(=O)N(CCN2CCOCC2)C1c1ccccc1` (stereo not given) the Potency was inconclusive: 14.1 µM [inhibitor, full curve, poor fit]. `CC(=O)Nc1ccc(NC(=O)C(=O)c2c[nH]c3ccccc23)cc1` was tested, and the Potency was inconclusive: 79.4 µM [inhibitor, partial curve, poor fit]. `O=C(COC(=O)c1cncc(Br)c1)Nc1ccc(F)c(F)c1F` was tested, and the Potency was inconclusive: 100 µM [inhibitor, single point]. With `CC1Oc2ccccc2N(CC(=O)Nc2ccc(F)cc2)C1=O` (stereo not given) the Potency was inconclusive: 2 µM [inhibitor, full curve, poor fit]. With `CCCC(=O)Nc1ccc(-c2csc(NC3CC3)n2)cc1` the Potency was inconclusive: 5.01 µM [inhibitor, full curve]. `COc1ccccc1-c1cc(C(=O)Nc2cccnc2Cl)no1` was tested, and the Potency was “inactive”. For `O=C(NN=C1CCCCC1)c1ccncc1`, the Potency was “inactive”. For `CC(=O)Nc1cc[n+](CC(=O)c2cccc([N+](=O)[O-])c2)cc1`, the Potency was inconclusive: 89.1 µM [inhibitor, single point]. `CC(C)(c1ccccc1)c1ccc(OCC(O)CNC2CCN(Cc3ccccc3)CC2)cc1` (stereo not given) was tested, and the Potency was inconclusive: 0.447 µM [inhibitor, full curve, poor fit]. In the case of `CCN1CCN(C(c2cccc(OC)c2)c2sc3nc(C)nn3c2O)CC1` (stereo not given), the Potency is reported as “inactive”. For `Cc1ccc2[nH]c(CNC(=O)c3ccccc3F)cc2c1`, the Potency was inconclusive: 28.2 µM [inhibitor, partial curve]. With `COc1cc(C(=O)Nc2ccccc2)cc2c1OCCO2` the Potency was “inactive”.
